No constants are given. Whether binding was seen depends on the method and setting. Binding seen in cells or lysates may run through a third protein. Some binding calls cover weakened binding; strength is not graded here. Where a sequence is shown, tags or fusion partners need not be part of it.
B1: SEPT9 (protein, UniProt Q9UHD8 1-586)
chain: MKKSYSGGTRTSSGRLRRLGDSSGPALKRSFEVEEVETPNSTPPRRVQTPLLRATVASSTQKFQDLGVKNSEPSARHVDSLSQRSPKASLRRVELSGPKAAEPVSRRTELSIDISSKQVENAGAIGPSRFGLKRAEVLGHKTPEPAPRRTEITIVKPQESAHRRMEPPASKVPEVPTAPATDAAPKRVEIQMPKPAEAPTAPSPAQTLENSEPAPVSQLQSRLEPKPQPPVAEATPRSQEATEAAPSCVGDMADTPRDAGLKQAPASRNEKAPVDFGYVGIDSILEQMRRKAMKQGFEFNIMVVGQSGLGKSTLINTLFKSKISRKSVQPTSEERIPKTIEIKSITHDIEEKGVRMKLTVIDTPGFGDHINNENCWQPIMKFINDQYEKYLQEEVNINRKKRIPDTRVHCCLYFIPATGHSLRPLDIEFMKRLSKVVNIVPVIAKADTLTLEERVHFKQRITADLLSNGIDVYPQKEFDEDSEDRLVNEKFREMIPFAVVGSDHEYQVNGKRILGRKTKWGTIEVENTTHCEFAYLRDLLIRTHMQNIKDITSSIHFEAYRVKRLNEGSSAMANGMEEKEPEAPEM
B2: SEPT9, Q9UHD8 1-586 (protein)
chain: MKKSYSGGTRTSSGRLRRLGDSSGPALKRSFEVEEVETPNSTPPRRVQTPLLRATVASSTQKFQDLGVKNSEPSARHVDSLSQRSPKASLRRVELSGPKAAEPVSRRTELSIDISSKQVENAGAIGPSRFGLKRAEVLGHKTPEPAPRRTEITIVKPQESAHRRMEPPASKVPEVPTAPATDAAPKRVEIQMPKPAEAPTAPSPAQTLENSEPAPVSQLQSRLEPKPQPPVAEATPRSQEATEAAPSCVGDMADTPRDAGLKQAPASRNEKAPVDFGYVGIDSILEQMRRKAMKQGFEFNIMVVGQSGLGKSTLINTLFKSKISRKSVQPTSEERIPKTIEIKSITHDIEEKGVRMKLTVIDTPGFGDHINNENCWQPIMKFINDQYEKYLQEEVNINRKKRIPDTRVHCCLYFIPATGHSLRPLDIEFMKRLSKVVNIVPVIAKADTLTLEERVHFKQRITADLLSNGIDVYPQKEFDEDSEDRLVNEKFREMIPFAVVGSDHEYQVNGKRILGRKTKWGTIEVENTTHCEFAYLRDLLIRTHMQNIKDITSSIHFEAYRVKRLNEGSSAMANGMEEKEPEAPEM

What was measured:
Test in all cases: co-IP
[1] = target: T1, Flag-tagged SEPT2 (human) (UniProt Q15019)
T1 sequence: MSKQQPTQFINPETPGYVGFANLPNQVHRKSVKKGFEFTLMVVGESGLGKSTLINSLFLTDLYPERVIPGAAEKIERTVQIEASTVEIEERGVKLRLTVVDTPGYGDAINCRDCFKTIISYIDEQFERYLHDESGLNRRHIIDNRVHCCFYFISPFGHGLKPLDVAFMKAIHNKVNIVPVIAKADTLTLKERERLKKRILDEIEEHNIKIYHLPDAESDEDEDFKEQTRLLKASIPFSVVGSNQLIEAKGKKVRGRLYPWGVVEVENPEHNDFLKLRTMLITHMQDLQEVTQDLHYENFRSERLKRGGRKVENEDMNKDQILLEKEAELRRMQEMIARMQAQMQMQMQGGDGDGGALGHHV

[2] = target: T2, Flag-tagged SEPT7 (human) (UniProt Q16181)
T2 sequence: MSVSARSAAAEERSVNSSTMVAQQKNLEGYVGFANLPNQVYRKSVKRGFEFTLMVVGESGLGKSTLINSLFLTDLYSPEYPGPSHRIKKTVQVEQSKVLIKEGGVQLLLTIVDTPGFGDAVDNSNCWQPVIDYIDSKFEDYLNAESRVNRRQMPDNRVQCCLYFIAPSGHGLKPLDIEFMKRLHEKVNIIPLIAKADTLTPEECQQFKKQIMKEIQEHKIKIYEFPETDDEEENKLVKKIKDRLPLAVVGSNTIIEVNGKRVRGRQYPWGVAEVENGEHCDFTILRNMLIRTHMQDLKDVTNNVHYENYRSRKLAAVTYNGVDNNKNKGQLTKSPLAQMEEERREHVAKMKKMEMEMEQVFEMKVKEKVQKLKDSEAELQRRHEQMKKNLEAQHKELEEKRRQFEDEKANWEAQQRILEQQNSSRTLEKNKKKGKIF

[3] = target: T3, Flag-tagged SEPT6 (human), Q14141; conditions: remark: other sources report otherwise
T3 chain: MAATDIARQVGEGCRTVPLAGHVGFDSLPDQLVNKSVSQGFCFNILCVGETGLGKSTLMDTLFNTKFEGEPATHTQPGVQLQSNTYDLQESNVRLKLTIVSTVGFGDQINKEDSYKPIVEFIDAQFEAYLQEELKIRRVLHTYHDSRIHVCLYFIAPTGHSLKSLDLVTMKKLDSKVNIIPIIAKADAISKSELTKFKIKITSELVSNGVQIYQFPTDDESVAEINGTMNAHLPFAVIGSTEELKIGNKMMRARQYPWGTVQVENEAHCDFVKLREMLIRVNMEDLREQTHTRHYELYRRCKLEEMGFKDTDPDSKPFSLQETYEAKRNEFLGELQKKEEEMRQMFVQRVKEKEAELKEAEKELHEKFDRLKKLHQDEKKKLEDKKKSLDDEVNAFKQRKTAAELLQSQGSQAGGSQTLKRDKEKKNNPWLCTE

Binder | binding [1] | binding [2] | binding [3]
B1 | binds | binds | –
B2 | – | – | binds

— paper PMC11078946
